We go through 88 substances from patent EP0552417B1 (priority 1991, dated 1993).

HELM strings list residues between dots; [ac] is acetyl, [am] amide, other brackets name non-standard units. Non-standard residues stand in square brackets, D forms with d. *: point of attachment. Hyp = O=C(O)[C@@H]1C[C@@H](O)CN1; dTle = CC(C)(C)[C@@H](N)C(=O)O; OPac = O=C(CO*)c1ccccc1; Boc = CC(C)(C)OC(=O)*; OBn = c1ccc(CO*)cc1; Bn = c1ccc(C*)cc1

One series can be described thus: general procedure: solution-phase peptide synthesis; DCC/HONB (ONB active esters). Conditions: coupling step.
Substance “Boc-Acbu-Leu-D-Trp-D-Asp(OBzl)-Trp-Asp(OBzl)-OPac” had a step yield of 94.0%.
The substance “Boc-Asn(CH2CH2-Ind)-Asp(OBzl)-D-Leu-Leu-OPac” registered a step yield of 78.1%.
Regarding “Boc-Asn(CH2CH2Ph)-Asp(OBzl)-D-Leu-Leu-OPac”, the step yield amounted to 88.7%.
Regarding Boc-Asn(CH2Ph)-Asp(OBzl)-D-Leu-Leu-OPac, the step yield worked out at 86.7%.
For the substance “Boc-Asn(NHCH2CH2Ind)-Asp(OBzl)-D-Thg(2)-Leu-OPac”, the step yield came out at 96.7%.
Turning to Boc-D(OBn)A[dL]L-OPac, the step yield is 94.2%.
Boc-D(OBn)[dL]L[dW][dD](OBn)-OPac registered a step yield of 82.5%.
In turn, “Boc-D-Asp(OBzl)-Asn(CH2CH2-Ind)-Asp(OBzl)-D-Leu-Leu-OPac” came in with a step yield of 85.4%.
With “Boc-D-Asp(OBzl)-Asn(CH2CH2Ph)-Asp(OBzl)-D-Leu-Leu-OPac”, the step yield stood at 93.5%.
Regarding “Boc-D-Asp(OBzl)-Asn(CH2Ph)-Asp(OBzl)-D-Leu-Leu-OPac”, the step yield is listed as 93.9%.
Same read-out and setting: then “Boc-D-Asp(OBzl)-Asn(NHCH2CH2Ind)-Asp(OBzl)-D-Thg(2)-Leu-OPac”, with 85.9%; and “Boc-D-Thg(2)-Leu-D-Trp-D-Asp(OBzl)-Asn(CH2CH2-Ind)-Asp(OBzl)-OPac”, with 98.7%.
The same measure, in the same setting: then “Boc-D-Thg(2)-Leu-D-Trp-D-Asp(OBzl)-Gln(Bzl)-Asp(OBzl)-OPac”, with 97.9%.
“Boc-D-Thg(2)-Leu-D-Trp-D-Asp(OBzl)-Hyp(Bzl)-Asp(OBzl)-OPac” registered a step yield of 98.0%.
On to “Boc-D-Thg(2)-Leu-D-Trp-D-Asp(OBzl)-Trp-Asp(OBzl)-OPac”, for which the step yield was 90.9%.
“Boc-D-Trp-D-Asp(OBzl)-Asn(CH2CH2-Ind)-Asp(OBzl)-D-Leu-Leu-OPac” came in with a step yield of 89.5%.
In the case of “Boc-D-Trp-D-Asp(OBzl)-Asn(CH2CH2-Ind)-Asp(OBzl)-OPac”, the step yield is 56.9%.
On the same count and under the same terms, then “Boc-D-Trp-D-Asp(OBzl)-Asn(CH2CH2Ph)-Asp(OBzl)-D-Leu-Leu-OPac”, with 90.5%; and “Boc-D-Trp-D-Asp(OBzl)-Asn(CH2Ph)-Asp(OBzl)-D-Leu-Leu-OPac”, with 81.6%; and “Boc-D-Trp-D-Asp(OBzl)-Asn(NHCH2CH2Ind)-Asp(OBzl)-D-Thg(2)-Leu-OPac”, with 68.0%.
Substance “Boc-D-Trp-D-Asp(OBzl)-Gln(Bzl)-Asp(OBzl)-OPac” returned a step yield of 94.2%.
“Boc-D-γMeLeu-Leu-D-Trp-D-Asp(OBzl)-Trp-Asp(OBzl)-OPac” gave a step yield of 98.0%.
Substance Boc-E(OBn)A[dL]L-OPac registered a step yield of 92.4%.
Take Boc-L[dW][dD](OBn)WD(OBn)-OPac: the step yield amounted to 82.2%.
The substance Boc-L[dW][dD](OBn)[Hyp](Bn)D(OBn)-OPac gave a step yield of 94.8%.
“Boc-Leu-D-Trp-D-Asp(OBzl)-Asn(CH2CH2-Ind)-Asp(OBzl)-OPac” registered a step yield of 91.4%.
For the substance “Boc-Leu-D-Trp-D-Asp(OBzl)-Gln(Bzl)-Asp(OBzl)-OPac”, the step yield is on record as 89.3%.
On to “Boc-Orn(COCH2-Ind)-Asp(OBzl)-D-Leu-Leu-D-Trp-D-Asp(OBzl)-OPac”, for which the step yield was 87.4%.
In the case of “Boc-Orn(COCH2CH2Ph)-Asp(OBzl)-D-Leu-Leu-D-Trp-D-Asp(OBzl)-OPac”, the step yield came to 91.0%.
In turn, “Boc-Orn(COCH2Ph)-Asp(OBzl)-D-Leu-Leu-D-Trp-D-Asp(OBzl)-OPac” yielded a step yield of 78.4%.
“Boc-Orn(COPh)-Asp(OBzl)-D-Leu-Leu-D-Trp-D-Asp(OBzl)-OPac”: the step yield was 94.9%.
As for Boc-PD(OBn)[dL]L-OPac, the step yield is reported as 89.5%.
Take Boc-WD(OBn)[dL]L-OPac: the step yield stood at 90.7%.
Consider Boc-[dD](OBn)D(OBn)A[dL]L-OPac, for which the step yield amounted to 87.0%.
Regarding Boc-[dD](OBn)E(OBn)A[dL]L-OPac, the step yield is given as 87.6%.
Take Boc-[dD](OBn)GA[dL]L-OPac: the step yield is given as 87.3%.
Boc-[dD](OBn)PD(OBn)[dL]L-OPac displayed a step yield of 91.2%.
Substance Boc-[dD](OBn)WD(OBn)[dL]L-OPac came in with a step yield of 86.7%.
Regarding Boc-[dD](OBn)[Hyp](Bn)D(OBn)[dL]L-OPac, the step yield stood at 84.3%.
As for Boc-[dL]L[dW][dD](OBn)-OPac, the step yield is on record as 90.5%.
The same measure, in the same setting: as for Boc-[dTle]L[dW][dD](OBn)WD(OBn)-OPac, the figure is 96.4%; as for Boc-[dW]D(OBn)WD(OBn)-OPac, 80.3%; as for Boc-[dW][dD](OBn)D(OBn)A[dL]L-OPac, 77.0%.
Same read-out and setting: then Boc-[dW][dD](OBn)E(OBn)A[dL]L-OPac, with 75.4%; and Boc-[dW][dD](OBn)GA[dL]L-OPac, with 49.1%; and Boc-[dW][dD](OBn)PD(OBn)[dL]L-OPac, with 78.7%.
Substance Boc-[dW][dD](OBn)WD(OBn)[dL]L-OPac had a step yield of 93.1%.
For the substance Boc-[dW][dD](OBn)[Hyp](Bn)D(OBn)-OPac, the step yield stood at 98.9%.
Regarding “Boc-[dW][dD](OBn)[Hyp](Bn)D(OBn)[dL]L-OPac”, the step yield was determined as 91.4%.
The same measure, in the same setting: then “PEPTIDE1{[dD].D.L.[dL].L.[dW]}$PEPTIDE1,PEPTIDE1,6:R2-1:R1$$$V2.0”, with 94.9%; and “PEPTIDE1{[dD].D.W.[dL].L.[dW]}$PEPTIDE1,PEPTIDE1,6:R2-1:R1$$$V2.0”, with 90.0%; and “PEPTIDE1{[dD].W.D.[Acpe].L.[dW]}$PEPTIDE1,PEPTIDE1,1:R1-6:R2$$$V2.0”, with 84.3%.
Same read-out and setting: then “PEPTIDE1{[dD].W.D.[dL].L.[D-Trp(Ac)]}$PEPTIDE1,PEPTIDE1,1:R1-6:R2$$$V2.0”, with 79.6%; and “PEPTIDE1{[dD].W.D.[dV].L.[dW]}$PEPTIDE1,PEPTIDE1,6:R2-1:R1$$$V2.0”, with 93.2%.
“PEPTIDE1{[dD].W.E.[dL].L.[dW]}$PEPTIDE1,PEPTIDE1,6:R2-1:R1$$$V2.0” returned a step yield of 98.2%.
Turning to “PEPTIDE1{[dD].[dA].D.[dL].L.[dW]}$PEPTIDE1,PEPTIDE1,6:R2-1:R1$$$V2.0”, the step yield is given as 91.8%.
“PEPTIDE1{[dD].[dP].D.[dL].L.[dW]}$PEPTIDE1,PEPTIDE1,6:R2-1:R1$$$V2.0” registered a step yield of 84.3%.

The series is the same for the next values; noted with them: cyclisation step.
The substance “PEPTIDE1{[dD].A.D.[dL].L.[dW]}$PEPTIDE1,PEPTIDE1,6:R2-1:R1$$$V2.0” yielded a cyclisation yield of 18.2%.
With “PEPTIDE1{[dD].A.E.[dL].L.[dW]}$PEPTIDE1,PEPTIDE1,6:R2-1:R1$$$V2.0”, the cyclisation yield amounted to 24.1%.
The substance “PEPTIDE1{[dD].A.[dD].[dL].L.[dW]}$PEPTIDE1,PEPTIDE1,6:R2-1:R1$$$V2.0” registered a cyclisation yield of 15.3%.
Substance “PEPTIDE1{[dD].A.[dE].[dL].L.[dW]}$PEPTIDE1,PEPTIDE1,6:R2-1:R1$$$V2.0” showed a cyclisation yield of 10.8%.
“cyclo from Boc-Acbu-Leu-D-Trp-D-Asp(OBzl)-Trp-Asp(OBzl)-OH”: the cyclisation yield is listed as 10.4%.
As to “cyclo([dD](OBn)[Hyp](Bn)D(OBn)[dL]L[dW])”, the cyclisation yield was determined as 82.6%.
The substance cyclo([dD]DA[dL]L[dW]) showed a cyclisation yield of 17.8%.
The substance cyclo([dD]EA[dL]L[dW]) had a cyclisation yield of 20.6%.

The series is the same for the next values; noted with them: late stage modification step.
The substance “Boc-Acbu-Leu-D-Trp-D-Asp(OBzl)-Trp-Asp(OBzl)-OH” returned a step yield of 97.5%.
Substance “Boc-D-Thg(2)-Leu-D-Trp-D-Asp(OBzl)-Asn(CH2CH2-Ind)-Asp(OBzl)-OH” registered a step yield of 98.0%.
Take “Boc-D-Thg(2)-Leu-D-Trp-D-Asp(OBzl)-Gln(Bzl)-Asp(OBzl)-OH”: the step yield came to 94.2%.
“Boc-D-Thg(2)-Leu-D-Trp-D-Asp(OBzl)-Hyp(Bzl)-Asp(OBzl)-OH”: the step yield amounted to 99.7%.
“Boc-D-Thg(2)-Leu-D-Trp-D-Asp(OBzl)-Trp-Asp(OBzl)-OH”: the step yield was 98.3%.
For the substance “Boc-D-Trp-D-Asp(OBzl)-Asn(CH2CH2-Ind)-Asp(OBzl)-D-Leu-Leu-OH”, the step yield was 92.5%.
“Boc-D-Trp-D-Asp(OBzl)-Asn(CH2CH2Ph)-Asp(OBzl)-D-Leu-Leu-OH”: the step yield is recorded as 97.3%.
The same measure, in the same setting: then “Boc-D-Trp-D-Asp(OBzl)-Asn(CH2Ph)-Asp(OBzl)-D-Leu-Leu-OH”, with 96.1%; and “Boc-D-Trp-D-Asp(OBzl)-Asn(NHCH2CH2Ind)-Asp(OBzl)-D-Thg(2)-Leu-OH”, with 98.0%; and “Boc-D-γMeLeu-Leu-D-Trp-D-Asp(OBzl)-Trp-Asp(OBzl)-OH”, with 97.8%.
On to “Boc-Orn(COCH2-Ind)-Asp(OBzl)-D-Leu-Leu-D-Trp-D-Asp(OBzl)-OH”, for which the step yield turned out to be 97.6%.
In turn, “Boc-Orn(COCH2CH2Ph)-Asp(OBzl)-D-Leu-Leu-D-Trp-D-Asp(OBzl)-OH” showed a step yield of 98.3%.
Still for that read-out and setting: as for “Boc-Orn(COCH2Ph)-Asp(OBzl)-D-Leu-Leu-D-Trp-D-Asp(OBzl)-OH”, the figure is 97.2%; as for “Boc-Orn(COPh)-Asp(OBzl)-D-Leu-Leu-D-Trp-D-Asp(OBzl)-OH”, 97.8%; as for Boc-[dTle]L[dW][dD](OBn)WD(OBn)-OH, 97.6%.
As for Boc-[dW][dD](OBn)D(OBn)A[dL]L-OH, the step yield was determined as 81.0%.
On the same count and under the same terms, then Boc-[dW][dD](OBn)E(OBn)A[dL]L-OH, with 91.4%; and Boc-[dW][dD](OBn)GA[dL]L-OH, with 87.5%; and Boc-[dW][dD](OBn)PD(OBn)[dL]L-OH, with 97.9%.
In the case of Boc-[dW][dD](OBn)WD(OBn)[dL]L-OH, the step yield is 96.1%.
For the substance Cyclo[-D-Asp-Azc-Asp-D-Leu-Leu-D-Trp-], the step yield is on record as 93.5%.
For the substance “PEPTIDE1{[dD].V.D.[dL].L.[dW]}$PEPTIDE1,PEPTIDE1,6:R2-1:R1$$$V2.0”, the step yield came out at 93.5%.
“PEPTIDE1{[dD].W.L.[dL].L.[dW]}$PEPTIDE1,PEPTIDE1,6:R2-1:R1$$$V2.0” returned a step yield of 97.5%.
